This series is described as follows: Storage stability of mouth rinse formulation B8: potency of the actives by HPLC. It is filed as physicochemical. The source says:
Quantification of the respective ingredients was done using high performance liquid chromatography (HPLC). A difference in calculated quantity of less than 5% from the intial formulation (i.e. time=0) amount was considered a “pass”, that is, indicative of minimal degradation. The relative standard deviation for the HPLC calculations was 3%.

Counter-ions that a name gives are not always drawn.

As to `C[C@@H]1C[C@H]2[C@@H]3CCC4=CC(=O)C=C[C@]4(C)[C@@]3(F)[C@@H](O)C[C@]2(C)[C@@]1(O)C(=O)COP(=O)(O)O` [Dexamethasone sodium phosphate, Dexamethasone 21-phosphate disodium salt], the “Potency (of label claim)” value by setting is: (formulation B8, 2 months at 40° C.) 100.8%; (formulation B8, 2 months at room temperature) 98.1%; (formulation B8, 3 months at 40° C.) 97.1%; (formulation B8, 3 months at room temperature) 102.7%; (formulation B8, 4 months at 40° C.) 102.7%; (formulation B8, 12 months at fridge 4° C.) 96.3%. In addition, the “Potency (of label claim)” value by setting is: (formulation B8, 12 months at room temperature) 100.1%; (formulation B8, time = 0) 103.2%. Also, the “Potency Pass/fail” value by setting is: (formulation B8, 2 months at 40° C., 90 to 110% of label claim, less than 5% change) “Pass (A difference in calculated quantity of less than 5% from the intial formulation (i.e. time=0) amount was considered a “pass”)”; (formulation B8, 2 months at room temperature, 90 to 110% of label claim, less than 5% change) “Pass (A difference in calculated quantity of less than 5% from the intial formulation (i.e. time=0) amount was considered a “pass”)”; (formulation B8, 3 months at 40° C., 90 to 110% of label claim, less than 5% change) “Pass (A difference in calculated quantity of less than 5% from the intial formulation (i.e. time=0) amount was considered a “pass”)”; (formulation B8, 3 months at room temperature, 90 to 110% of label claim, less than 5% change) “Pass (A difference in calculated quantity of less than 5% from the intial formulation (i.e. time=0) amount was considered a “pass”)”; (formulation B8, 4 months at 40° C., 90 to 110% of label claim, less than 5% change) “Pass (A difference in calculated quantity of less than 5% from the intial formulation (i.e. time=0) amount was considered a “pass”)”; (formulation B8, 4 months at room temperature, 90 to 110% of label claim, less than 5% change) “Pass (A difference in calculated quantity of less than 5% from the intial formulation (i.e. time=0) amount was considered a “pass”)”. In addition, the “Potency Pass/fail” value is, setting by setting: (formulation B8, 12 months at fridge 4° C., 90 to 110% of label claim, less than 5% change) “Pass (A difference in calculated quantity of less than 5% from the intial formulation (i.e. time=0) amount was considered a “pass”)”; (formulation B8, 12 months at room temperature, 90 to 110% of label claim, less than 5% change) “Pass (A difference in calculated quantity of less than 5% from the intial formulation (i.e. time=0) amount was considered a “pass”)”; (formulation B8, time = 0, limits 90 to 110% of label claim) “Pass (A difference in calculated quantity of less than 5% from the intial formulation (i.e. time=0) amount was considered a “pass”)”.

The record behind these values is patent US20100190735A1, “Mouthwash and Method of Using Same for the Treatment of Mucositis or Stomatitis” (priority 2006, published 2010).
